# Laboratory results: the supplement of paper PMC4604168 (melanoma cell lines)
# The list shows a part of the results. Repeats are few or missing, and single values can be far off.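 The apoptosis fraction was the count of cleaved-PARP antibody-stained nuclei relative to all DNA-stained nuclei, imaged in 1,536-well plates. Screening doses were set so most cells survived, and baseline and induced cleaved-PARP levels vary greatly across cell lines.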
# Tested on: SkMel30
# Experiment: cleaved PARP positive nuclei fraction relative to DMSO control; melanoma cells; higher = more apoptosis
# Conditions: library dose: low library concentration; 72 h
row,SMILES,cleaved PARP positive nuclei fraction [%]
1,"C=CCn1c(=O)c2cnc(Nc3ccc(N4CCN(C)CC4)cc3)nc2n1-c1cccc(C(C)(C)O)n1 + CCCCCCCCCCCC1=C(O)C(=O)C=C(O)C1=O [Embelin] (first compound 0.02 µM, partner dose 1.2 µM)",51.6
2,"Cc1cc(N2CCOCC2)cc2[nH]c(-c3c(NC[C@@H](O)c4cccc(Cl)c4)cc[nH]c3=O)nc12 + COc1ccc(-c2ccc3c(N4CCOCC4)nc(N4C[C@@H](C)O[C@@H](C)C4)nc3n2)cc1CO [KU0063794] (first compound 0.2 µM, partner dose 0.02 µM)",661
3,"COCC[n+]1c2c(n(Cc3cnccn3)c1C)C(=O)c1ccccc1C2=O + O=C1NC(=O)/C(=C/c2ccc(-c3ccc(F)cc3O)o2)S1 [AS252424] (first compound 0.0004 µM, partner dose 1 µM)",18.8
4,"Cn1nnc2c(C(N)=O)ncn2c1=O [temozolomide] + CCc1ccc(CCOc2ccc(CC3SC(=O)NC3=O)cc2)nc1 [pioglitazone] (first compound 2 µM, partner dose 2 µM)",25.1
5,"C#Cc1cccc(Nc2ncnc3cc(OCCOC)c(OCCOC)cc23)c1 [erlotinib] + Oc1cc(-c2nc(-c3ccccc3)[nH]c2-c2ccncc2)ccc1Cl [L779450] (first compound 0.8 µM, partner dose 0.2 µM)",16.1
6,"Cc1ccc(NC(=O)c2cccc(N(C)C)c2)cc1NC(=O)c1ccc(O)cc1 + CCN(CC)CCCCNc1ncc2cc(-c3cc(OC)cc(OC)c3)c(NC(=O)NC(C)(C)C)nc2n1 [PD173074] (first compound 2 µM, partner dose 0.1 µM)",440
7,"Cn1cncc1[C@@](N)(c1ccc(Cl)cc1)c1ccc2c(c1)c(-c1cccc(Cl)c1)cc(=O)n2C [tipifarnib] + CCCCCCCCCCCC1=C(O)C(=O)C=C(O)C1=O [Embelin] (first compound 0.01 µM, partner dose 1.2 µM)",49.9
8,"O=C(CCCCCCC(=O)Nc1ccccc1)NO [vorinostat] + c1cc(-c2cnn3cc(-c4ccc(OCCN5CCCCC5)cc4)cnc23)ccn1 [Dorsomorphin] (first compound 0.08 µM, partner dose 0.4 µM)",73.8
9,"NC(=O)Nc1cc(-c2cccc(F)c2)sc1C(=O)N[C@H]1CCCNC1 + COC(=O)c1sccc1S(=O)(=O)Nc1ccc(Nc2ccccc2)cc1OC [GSK0660] (first compound 0.02 µM, partner dose 1 µM)",30.8
10,"Cc1nc(Nc2ncc(C(=O)Nc3c(C)cccc3Cl)s2)cc(N2CCN(CCO)CC2)n1 [dasatanib] + Oc1nc(-c2ccc(C(F)(F)F)cc2)nc2c1CSCC2 [XAV939] (first compound 0.004 µM, partner dose 2 µM)",14.2
11,"Cn1cncc1[C@@](N)(c1ccc(Cl)cc1)c1ccc2c(c1)c(-c1cccc(Cl)c1)cc(=O)n2C [tipifarnib] + Oc1cc(-c2nc(-c3ccccc3)[nH]c2-c2ccncc2)ccc1Cl [L779450] (first compound 0.01 µM, partner dose 0.2 µM)",16.1
12,"O=C(CCCCCCC(=O)Nc1ccccc1)NO [vorinostat] + COc1ccc(COc2ccc(Cc3cnc(N)nc3N)cc2OC)cc1 [GW2580] (first compound 0.08 µM, partner dose 1 µM)",16.7
13,"O=C(CCCCCCC(=O)Nc1ccccc1)NO [vorinostat] + COc1cc(N2CCC(N3CCN(C)CC3)CC2)ccc1Nc1ncc(Cl)c(Nc2ccccc2S(=O)(=O)C(C)C)n1 [NVP-TAE684] (first compound 0.08 µM, partner dose 0.08 µM)",124
14,"OCCn1cc(-c2cnc3nnn(Cc4ccc5ncccc5c4)c3n2)cn1 + Oc1nc(-c2ccc(C(F)(F)F)cc2)nc2c1CSCC2 [XAV939] (first compound 1 µM, partner dose 2 µM)",18
15,"Cn1nnc2c(C(N)=O)ncn2c1=O [temozolomide] + COc1ccc(COc2ccc(Cc3cnc(N)nc3N)cc2OC)cc1 [GW2580] (first compound 2 µM, partner dose 1 µM)",35
16,"C=CCn1c(=O)c2cnc(Nc3ccc(N4CCN(C)CC4)cc3)nc2n1-c1cccc(C(C)(C)O)n1 + COc1ccc(COc2ccc(Cc3cnc(N)nc3N)cc2OC)cc1 [GW2580] (first compound 0.02 µM, partner dose 1 µM)",53.2
17,"NC(=O)Nc1cc(-c2cccc(F)c2)sc1C(=O)N[C@H]1CCCNC1 + Cn1cc(/C=C2\C(=O)Nc3cccnc32)c2ccccc21 [GW441756] (first compound 0.02 µM, partner dose 0.4 µM)",1440

# Seven entries from above, with bars between the fields.
row | SMILES | cleaved PARP positive nuclei fraction [%]
5 | C#Cc1cccc(Nc2ncnc3cc(OCCOC)c(OCCOC)cc23)c1 [erlotinib] + Oc1cc(-c2nc(-c3ccccc3)[nH]c2-c2ccncc2)ccc1Cl [L779450] (first compound 0.8 µM, partner dose 0.2 µM) | 16.1
6 | Cc1ccc(NC(=O)c2cccc(N(C)C)c2)cc1NC(=O)c1ccc(O)cc1 + CCN(CC)CCCCNc1ncc2cc(-c3cc(OC)cc(OC)c3)c(NC(=O)NC(C)(C)C)nc2n1 [PD173074] (first compound 2 µM, partner dose 0.1 µM) | 440
8 | O=C(CCCCCCC(=O)Nc1ccccc1)NO [vorinostat] + c1cc(-c2cnn3cc(-c4ccc(OCCN5CCCCC5)cc4)cnc23)ccn1 [Dorsomorphin] (first compound 0.08 µM, partner dose 0.4 µM) | 73.8
10 | Cc1nc(Nc2ncc(C(=O)Nc3c(C)cccc3Cl)s2)cc(N2CCN(CCO)CC2)n1 [dasatanib] + Oc1nc(-c2ccc(C(F)(F)F)cc2)nc2c1CSCC2 [XAV939] (first compound 0.004 µM, partner dose 2 µM) | 14.2
11 | Cn1cncc1[C@@](N)(c1ccc(Cl)cc1)c1ccc2c(c1)c(-c1cccc(Cl)c1)cc(=O)n2C [tipifarnib] + Oc1cc(-c2nc(-c3ccccc3)[nH]c2-c2ccncc2)ccc1Cl [L779450] (first compound 0.01 µM, partner dose 0.2 µM) | 16.1
14 | OCCn1cc(-c2cnc3nnn(Cc4ccc5ncccc5c4)c3n2)cn1 + Oc1nc(-c2ccc(C(F)(F)F)cc2)nc2c1CSCC2 [XAV939] (first compound 1 µM, partner dose 2 µM) | 18
16 | C=CCn1c(=O)c2cnc(Nc3ccc(N4CCN(C)CC4)cc3)nc2n1-c1cccc(C(C)(C)O)n1 + COc1ccc(COc2ccc(Cc3cnc(N)nc3N)cc2OC)cc1 [GW2580] (first compound 0.02 µM, partner dose 1 µM) | 53.2

# Following part

row,SMILES,cleaved PARP positive nuclei fraction [%]
1,"CO[C@@H]1[C@H](N(C)C(=O)c2ccccc2)C[C@H]2O[C@]1(C)n1c3ccccc3c3c4c(c5c6ccccc6n2c5c31)C(=O)NC4 [Midostaurin] + O=C(O)C(=O)Nc1sc2c(c1C(=O)O)CCNC2 [TCS401] (first compound 0.08 µM, partner dose 1.66667 µM)",20.3
2,"C#Cc1cccc(Nc2ncnc3cc(OCCOC)c(OCCOC)cc23)c1 [erlotinib] + COc1cc2ncnc(Nc3ccc(Oc4ccccc4)cc3)c2cc1OC [SrcI1] (first compound 0.8 µM, partner dose 2 µM)",16.1
3,"Cn1cncc1[C@@](N)(c1ccc(Cl)cc1)c1ccc2c(c1)c(-c1cccc(Cl)c1)cc(=O)n2C [tipifarnib] + COc1ccc2c(c1)CCC1C2CCC2(C)C(NCCCCCCN3C(=O)C=CC3=O)CCC12 [U73122] (first compound 0.01 µM, partner dose 0.4 µM)",58.7
4,"O=C(Nc1cccc(Cl)c1)Nc1ncc(CCNc2ncnc3ccsc23)s1 + O=C(O)C(=O)Nc1sc2c(c1C(=O)O)CCNC2 [TCS401] (first compound 0.0008 µM, partner dose 1.66667 µM)",54.8
5,"C=CCn1c(=O)c2cnc(Nc3ccc(N4CCN(C)CC4)cc3)nc2n1-c1cccc(C(C)(C)O)n1 + O=S(=O)(c1ccccc1)N(CC(F)(F)F)c1ccc(C(O)(C(F)(F)F)C(F)(F)F)cc1 [T0901317] (first compound 0.02 µM, partner dose 1.4 µM)",118
6,"CC(C)(C)c1cnc(CSc2cnc(NC(=O)C3CCNCC3)s2)o1 + c1cc(-c2cnn3cc(-c4ccc(OCCN5CCCCC5)cc4)cnc23)ccn1 [Dorsomorphin] (first compound 0.01 µM, partner dose 0.4 µM)",22.4
7,"O=C(CCCCCCC(=O)Nc1ccccc1)NO [vorinostat] + O=S(=O)(c1ccccc1)N(CC(F)(F)F)c1ccc(C(O)(C(F)(F)F)C(F)(F)F)cc1 [T0901317] (first compound 0.08 µM, partner dose 1.4 µM)",35.6
8,"Cn1c(Nc2ccc(C(F)(F)F)cc2)nc2cc(Oc3ccnc(-c4ncc(C(F)(F)F)[nH]4)c3)ccc21 + COC(=O)c1sccc1S(=O)(=O)Nc1ccc(Nc2ccccc2)cc1OC [GSK0660] (first compound 0.08 µM, partner dose 1 µM)",159
9,"C#Cc1cccc(Nc2ncnc3cc(OCCOC)c(OCCOC)cc23)c1 [erlotinib] + O=C(Nc1ccccc1)c1cc([N+](=O)[O-])ccc1Cl [GW9662] (first compound 0.8 µM, partner dose 2 µM)",119
10,"Cc1cc(N2CCOCC2)cc2[nH]c(-c3c(NC[C@@H](O)c4cccc(Cl)c4)cc[nH]c3=O)nc12 + O=C(O)C(=O)Nc1sc2c(c1C(=O)O)CCNC2 [TCS401] (first compound 0.2 µM, partner dose 1.66667 µM)",134
11,"Nc1cccc2c1CN(C1CCC(=O)NC1=O)C2=O (stereo not drawn) [lenalidomide] + Oc1nc(-c2ccc(C(F)(F)F)cc2)nc2c1CSCC2 [XAV939] (first compound 1 µM, partner dose 2 µM)",47.7
12,"Cn1c(Nc2ccc(C(F)(F)F)cc2)nc2cc(Oc3ccnc(-c4ncc(C(F)(F)F)[nH]4)c3)ccc21 + COc1ccc(COc2ccc(Cc3cnc(N)nc3N)cc2OC)cc1 [GW2580] (first compound 0.08 µM, partner dose 1 µM)",40.9
13,"C[C@]1(c2nc3c(C(N)=O)cccc3[nH]2)CCCN1 [Veliparib] + CC(C)CCN1c2nc(Nc3cc(F)c(O)c(F)c3)ncc2N(C)C(=O)C1C [BID1870] (first compound 1.4 µM, partner dose 0.2 µM)",60.4
14,"C=CCn1c(=O)c2cnc(Nc3ccc(N4CCN(C)CC4)cc3)nc2n1-c1cccc(C(C)(C)O)n1 + CCc1ccc(CCOc2ccc(CC3SC(=O)NC3=O)cc2)nc1 [pioglitazone] (first compound 0.02 µM, partner dose 2 µM)",122
15,"C=CCn1c(=O)c2cnc(Nc3ccc(N4CCN(C)CC4)cc3)nc2n1-c1cccc(C(C)(C)O)n1 + COC(=O)c1sccc1S(=O)(=O)Nc1ccc(Nc2ccccc2)cc1OC [GSK0660] (first compound 0.02 µM, partner dose 1 µM)",51.4
16,"C#Cc1cccc(Nc2ncnc3cc(OCCOC)c(OCCOC)cc23)c1 [erlotinib] + COc1ccc2c(c1)CCC1C2CCC2(C)C(NCCCCCCN3C(=O)C=CC3=O)CCC12 [U73122] (first compound 0.8 µM, partner dose 0.4 µM)",16.3
